Measured values from paper PMC10986131.
Results are given in words; binding and its absence hold for the method and conditions named. Binding seen in cells or lysates may run through a third protein. Some entries that bind do so weakly or less than the wild type.

By UniProt entry, the sequences of proteins in these tests, tags left out.
UniProt P62873: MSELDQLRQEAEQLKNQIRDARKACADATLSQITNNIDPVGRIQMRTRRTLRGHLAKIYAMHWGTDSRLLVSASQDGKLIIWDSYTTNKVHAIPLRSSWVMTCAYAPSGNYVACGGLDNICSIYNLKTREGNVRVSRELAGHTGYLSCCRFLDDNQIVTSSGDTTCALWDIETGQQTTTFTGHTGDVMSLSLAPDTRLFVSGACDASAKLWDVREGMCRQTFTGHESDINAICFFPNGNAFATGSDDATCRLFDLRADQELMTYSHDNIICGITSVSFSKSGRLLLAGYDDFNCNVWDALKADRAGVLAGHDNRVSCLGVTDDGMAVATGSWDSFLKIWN
UniProt P32121: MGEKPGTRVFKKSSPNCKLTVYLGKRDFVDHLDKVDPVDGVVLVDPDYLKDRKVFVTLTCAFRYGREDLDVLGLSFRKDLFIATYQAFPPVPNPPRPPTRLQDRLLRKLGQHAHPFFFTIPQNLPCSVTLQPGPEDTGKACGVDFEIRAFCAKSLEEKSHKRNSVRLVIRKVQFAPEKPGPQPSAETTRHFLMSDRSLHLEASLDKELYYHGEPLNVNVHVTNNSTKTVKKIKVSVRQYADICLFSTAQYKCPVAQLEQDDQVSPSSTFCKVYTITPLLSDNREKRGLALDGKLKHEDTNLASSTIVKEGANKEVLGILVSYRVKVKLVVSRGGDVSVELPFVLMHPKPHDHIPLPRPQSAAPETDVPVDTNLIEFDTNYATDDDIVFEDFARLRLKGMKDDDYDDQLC

Biological target: FLAG-Gβ1 (UniProt P62873)
Assay: co-IP; transfected HEK293 cells expressing D3R (Fig. 8D: CTRL-shRNA and TRAF6-KD cells); lysis in 20 mM HEPES, 150 mM NaCl, 2 mM EDTA, 10% glycerol, 0.5% NP-40; anti-FLAG agarose beads 2-3 h at 4 °C; immunoblot; cells treated with vehicle, 30 nM DA or 100 nM Quin by the desensitization protocol (treated, washed, retreated), some pretreated with 10 μM PP2 for 30 min

## GFP-β-Arr2 (from UniProt P32121 1-409)
  binding: binds
